Results published in paper PMC11233569.
Results are given in words; binding and its absence hold for the method and conditions named. In cells and extracts the contact can be indirect. Some binding calls cover weakened binding; strength is not graded here. For some assays here: Tags and fused reporters may be left off the sequences shown.

Amino acid sequences for entries named in this document (tags omitted).
UniProt Q15629: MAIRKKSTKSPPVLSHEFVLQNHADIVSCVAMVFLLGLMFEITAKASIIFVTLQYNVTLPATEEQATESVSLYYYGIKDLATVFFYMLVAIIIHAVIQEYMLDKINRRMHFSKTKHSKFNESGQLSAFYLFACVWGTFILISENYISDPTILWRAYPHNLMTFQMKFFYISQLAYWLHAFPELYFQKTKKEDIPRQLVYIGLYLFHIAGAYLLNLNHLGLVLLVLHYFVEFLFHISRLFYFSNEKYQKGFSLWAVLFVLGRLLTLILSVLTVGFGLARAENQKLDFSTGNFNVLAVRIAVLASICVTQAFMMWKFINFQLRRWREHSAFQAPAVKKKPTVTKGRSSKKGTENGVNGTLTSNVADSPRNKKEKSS

How the values were obtained:
[1] = molecular target: T1, Flag-tagged TREX1 (human) (UniProt Q9NSU2); assay: co-IP; HEK293T cells transiently transfected with Flag-tagged TREX1 and His-tagged TRAM1; bidirectional Co-IP, western blot
T1 sequence: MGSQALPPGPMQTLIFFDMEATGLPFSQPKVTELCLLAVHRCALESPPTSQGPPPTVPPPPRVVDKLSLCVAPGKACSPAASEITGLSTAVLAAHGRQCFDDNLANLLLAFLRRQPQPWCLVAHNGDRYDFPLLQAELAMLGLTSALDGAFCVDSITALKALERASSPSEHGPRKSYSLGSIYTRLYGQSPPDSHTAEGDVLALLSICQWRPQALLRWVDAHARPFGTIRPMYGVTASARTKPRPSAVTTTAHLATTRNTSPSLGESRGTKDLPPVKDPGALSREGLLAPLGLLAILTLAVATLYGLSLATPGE

[2] = molecular target: T2, endogenous TREX1 (three-prime repair exonuclease 1) (human (endogenous in NP cells)) (UniProt Q9NSU2); assay: co-IP; endogenous forward and reverse Co-IP in normal (passage 2) and senescent (passage 8) human NP cells; NP-40 lysate, 3-5 ug primary or control antibody overnight at 4 C, protein A/G magnetic beads, western blot
T2 sequence: T1 sequence

binding [1]	binding [2]	Substance
binds	–	His-tagged TRAM1 (from UniProt Q15629 1-374)
–	binds	endogenous translocating chain-associating membrane protein 1 (TRAM1) (from UniProt Q15629 1-374)
